Measured values: PMC4890663

By UniProt entry, the sequences of proteins in these tests, tags left out.
UniProt Q61879: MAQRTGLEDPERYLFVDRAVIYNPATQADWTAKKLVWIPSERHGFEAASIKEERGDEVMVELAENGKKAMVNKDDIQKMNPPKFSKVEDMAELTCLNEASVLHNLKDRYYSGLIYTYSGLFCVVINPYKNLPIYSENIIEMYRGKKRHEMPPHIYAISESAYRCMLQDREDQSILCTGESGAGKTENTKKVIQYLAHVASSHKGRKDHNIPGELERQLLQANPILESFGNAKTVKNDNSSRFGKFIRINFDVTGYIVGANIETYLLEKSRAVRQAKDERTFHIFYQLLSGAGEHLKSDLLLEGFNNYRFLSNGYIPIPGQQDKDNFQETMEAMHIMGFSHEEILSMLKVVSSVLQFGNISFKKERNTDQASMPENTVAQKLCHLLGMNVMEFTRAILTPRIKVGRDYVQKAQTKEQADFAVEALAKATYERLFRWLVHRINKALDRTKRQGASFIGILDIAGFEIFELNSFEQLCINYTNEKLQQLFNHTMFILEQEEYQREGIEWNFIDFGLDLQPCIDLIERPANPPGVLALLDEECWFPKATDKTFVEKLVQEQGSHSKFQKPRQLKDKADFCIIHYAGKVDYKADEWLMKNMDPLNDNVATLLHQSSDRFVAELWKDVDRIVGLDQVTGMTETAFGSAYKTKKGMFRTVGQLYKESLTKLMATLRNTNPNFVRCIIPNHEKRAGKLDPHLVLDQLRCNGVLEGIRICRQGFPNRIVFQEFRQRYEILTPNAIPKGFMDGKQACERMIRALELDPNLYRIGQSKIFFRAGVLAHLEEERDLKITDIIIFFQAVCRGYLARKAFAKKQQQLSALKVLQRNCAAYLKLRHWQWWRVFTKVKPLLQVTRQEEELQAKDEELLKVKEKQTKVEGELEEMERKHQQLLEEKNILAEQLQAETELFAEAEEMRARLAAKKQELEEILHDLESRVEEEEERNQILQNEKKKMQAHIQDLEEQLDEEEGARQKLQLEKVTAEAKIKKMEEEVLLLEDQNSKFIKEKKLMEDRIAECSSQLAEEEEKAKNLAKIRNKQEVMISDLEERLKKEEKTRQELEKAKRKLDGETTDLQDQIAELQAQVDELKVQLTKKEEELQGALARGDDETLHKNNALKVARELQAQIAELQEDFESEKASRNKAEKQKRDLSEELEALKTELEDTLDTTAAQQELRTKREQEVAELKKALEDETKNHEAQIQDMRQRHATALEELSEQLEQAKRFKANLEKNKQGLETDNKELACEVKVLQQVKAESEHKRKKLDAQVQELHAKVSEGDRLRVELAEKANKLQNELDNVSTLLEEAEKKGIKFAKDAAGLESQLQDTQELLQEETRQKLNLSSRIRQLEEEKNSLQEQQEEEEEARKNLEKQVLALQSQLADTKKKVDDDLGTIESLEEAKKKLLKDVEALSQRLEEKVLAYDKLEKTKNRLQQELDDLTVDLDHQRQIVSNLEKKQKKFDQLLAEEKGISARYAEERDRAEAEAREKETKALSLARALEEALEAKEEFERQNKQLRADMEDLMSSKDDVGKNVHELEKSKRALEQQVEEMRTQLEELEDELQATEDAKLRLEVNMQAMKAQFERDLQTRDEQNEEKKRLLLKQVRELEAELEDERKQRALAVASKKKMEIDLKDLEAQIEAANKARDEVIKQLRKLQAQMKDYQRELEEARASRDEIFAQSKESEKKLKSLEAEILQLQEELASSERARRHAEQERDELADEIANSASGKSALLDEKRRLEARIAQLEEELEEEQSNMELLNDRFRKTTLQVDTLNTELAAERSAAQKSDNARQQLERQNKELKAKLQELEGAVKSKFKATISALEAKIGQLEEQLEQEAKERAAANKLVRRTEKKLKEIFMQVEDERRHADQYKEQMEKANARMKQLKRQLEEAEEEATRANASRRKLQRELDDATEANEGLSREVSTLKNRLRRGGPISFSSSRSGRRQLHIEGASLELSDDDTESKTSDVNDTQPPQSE

Target: T1, Halo-tagged Dlc1 isoform 2 (mouse) (UniProt Q9R0Z9)
T1 sequence: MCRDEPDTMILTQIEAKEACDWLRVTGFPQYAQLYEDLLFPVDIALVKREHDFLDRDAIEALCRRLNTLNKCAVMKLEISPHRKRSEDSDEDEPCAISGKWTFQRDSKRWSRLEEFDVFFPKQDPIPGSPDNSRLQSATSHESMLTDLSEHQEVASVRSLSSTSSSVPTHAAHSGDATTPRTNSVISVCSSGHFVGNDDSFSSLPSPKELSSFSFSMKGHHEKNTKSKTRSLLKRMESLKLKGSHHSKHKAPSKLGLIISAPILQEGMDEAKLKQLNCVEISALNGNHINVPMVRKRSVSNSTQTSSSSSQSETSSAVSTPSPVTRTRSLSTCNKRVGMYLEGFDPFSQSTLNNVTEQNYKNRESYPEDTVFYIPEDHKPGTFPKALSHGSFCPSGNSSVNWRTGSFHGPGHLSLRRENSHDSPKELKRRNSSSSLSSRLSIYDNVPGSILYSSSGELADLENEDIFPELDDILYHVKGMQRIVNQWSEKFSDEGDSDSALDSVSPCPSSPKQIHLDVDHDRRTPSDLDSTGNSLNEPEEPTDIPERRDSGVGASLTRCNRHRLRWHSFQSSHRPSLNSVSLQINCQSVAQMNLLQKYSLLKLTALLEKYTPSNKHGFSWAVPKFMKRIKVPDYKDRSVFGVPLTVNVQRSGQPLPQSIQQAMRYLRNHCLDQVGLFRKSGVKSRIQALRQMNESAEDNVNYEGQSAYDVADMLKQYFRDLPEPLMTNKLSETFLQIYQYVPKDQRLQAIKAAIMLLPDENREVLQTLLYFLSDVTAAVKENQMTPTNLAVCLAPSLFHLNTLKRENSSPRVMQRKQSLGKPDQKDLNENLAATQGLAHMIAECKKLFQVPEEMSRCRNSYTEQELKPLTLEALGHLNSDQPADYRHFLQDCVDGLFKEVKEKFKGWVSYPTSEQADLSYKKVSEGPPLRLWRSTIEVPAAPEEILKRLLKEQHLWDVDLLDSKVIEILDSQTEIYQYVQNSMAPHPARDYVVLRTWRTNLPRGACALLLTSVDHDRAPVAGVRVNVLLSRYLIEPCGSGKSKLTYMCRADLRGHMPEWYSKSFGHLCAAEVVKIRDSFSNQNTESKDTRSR
Test: affinity purification with mass spectrometry; Halo-tagged Dlc1 isoforms (or halo tag only) expressed in OC-033 cells, pulled down on HaloLink resin; products resolved by SDS-PAGE, Coomassie stained, most conspicuous bands cut out, in-gel digestion and tandem MS

Row | binding | Substance
1 | binds | non-muscle myosin heavy chain IIB (Myh10) (from UniProt Q61879 1-1976)
2 | binds | alpha spectrin 1 (Sptan1 also known as Spna2 and fodrin) (from UniProt P16546 1-2472)

Results are given in words; binding and its absence hold for the method and conditions named. In cells and extracts the contact can be indirect. Here binding means that the protein was enriched with, or labelled near, the bait; the list need not be complete. Sequences can lack the tags named with a protein.
